# The campaign covered roughly 390,000 compounds. About 760 (0.19%) were called active. The inconclusive results got no clear call from the source; some entries with a clear call stand among them for comparison. The call rests on the fitted dose curve; in most records, active means well fitted inhibition curve with a large enough effect; inconclusive means small, poorly fitted or top-dose-only effect; inactive means flat fitted curve, though single readings scatter. Potencies beside an inconclusive call are fits to weak or partial responses and may not hold up.
# Test: qHTS for Inhibitors of Vif-A3F Interactions: qHTS; further: nearly all actives have a fitted effect of over 65% in size; on activity, negative = active: % of control where 0% means no effect
# Conditions: HeLa A3F-eYFP + Vif (tagged APOBEC3F with the HIV-1 protein that degrades it), YFP fluorescence increase; series mostly up to 46.1 µM; activity, negative = active: at the top concentration
# Summary of the method: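 Fluorescence increase (Ex 488/Em 500-530) after overnight compound treatment at 37 deg C flags inhibition of Vif-driven A3F-eYFP loss in stable HeLa A3F-eYFP/Vif cells seeded overnight beforehand.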
# Potency means the concentration at half of the fitted maximal effect.
Structure (SMILES),Potency,"activity, negative = active"
CCN(CC)c1ccc(/C=C2\C(=O)N(c3nnc(C)c(=O)[nH]3)N=C2C)cc1,"inconclusive: 3.16 µM [inhibitor, partial curve, poor fit]",–
CCOc1cc(CNc2ccc(Br)cc2)cc(Br)c1OCC(=O)NC(C)(C)C,–,inactive: -5.91%
CC(=O)c1c(C)nc(-c2ccc(Cl)cc2)nc1N,"inconclusive: 3.16 µM [inhibitor, partial curve, poor fit]",–
Cc1cc(NS(=O)(=O)c2ccc(NC(=O)COc3ccccc3C(C)(C)C)cc2)no1,"inconclusive: 5.62 µM [inhibitor, single point]",–
CN(C(=O)Nc1ccc(Cl)cc1)c1c2c(nn1C)CCCC2,–,inactive: -1.15%
COc1ccc(CCNc2ncnc3c2oc2ccccc23)cc1OC,–,inactive: -2.9%
Cc1ccc2cc(C(c3nnnn3C3CCCC3)N(Cc3ccco3)Cc3cccs3)c(=O)[nH]c2c1 (stereo not given),–,inactive: 2.48%
CCCOC(=O)c1cc(-c2ccc(C=O)o2)ccc1Cl,"inconclusive: 3.16 µM [inhibitor, partial curve, poor fit]",–
Cc1cc(C)c2c(=N)c3ccccc3n(CCCCCCCCn3c4ccccc4c(=N)c4c(C)cc(C)nc43)c2n1,"inconclusive: 20 µM [inhibitor, single point]",–
Cc1ccc(C(C)NC(=O)c2ccncc2)c(C)c1 (stereo not given),"inconclusive: 2.24 µM [inhibitor, partial curve, poor fit]",–
O=C(O)CC/C(=N/NC(=O)CNC(=O)c1ccc2c(c1)OCCO2)c1ccccc1,–,inactive: 10.9%
O=S(=O)(Nc1ccc(-c2nnc(SCc3ccc(Cl)cc3)o2)cc1)c1ccccc1,"inconclusive: 5.62 µM [inhibitor, partial curve, poor fit]",–
CN(C)c1ccc(C(=O)NCc2ccc3c(c2)CCN3C(=O)c2ccccc2)cc1,"inconclusive: 20 µM [inhibitor, single point]",–
CCCC(=O)NC(NC1CCS(=O)(=O)C1)C(Cl)(Cl)Cl (stereo not given),–,inactive: -2.63%
CN(C)c1ccc(CNC(=O)c2sc3ncccc3c2-n2cccc2)cc1,–,inactive: 0.506%
Cn1cccc1/C=C1\SC(=Nc2ccc(O)cc2)NC1=O,"inconclusive: 35.5 µM [inhibitor, single point]",–
O=C(NCc1cccnc1)c1cccs1,"inconclusive: 14.1 µM [inhibitor, single point]",–
Cc1nnc(N/N=C/c2cccc(C(F)(F)F)c2)n1N,–,inactive: 1.32%
O=C(CN1C(=O)CC(c2ccc(F)cc2)=Nc2ccccc21)NCc1ccccc1Cl,"inconclusive: 35.5 µM [inhibitor, single point]",–
Cn1cnnc1SCC(=O)Nc1ccccc1C(=O)NC1CCCC1,"inconclusive: 5.62 µM [inhibitor, single point]",–
COc1cc2c(-c3ccccc3Cl)nc3c(c(C)nn3-c3ccccc3)c2cc1OC,–,inactive: 6.92%
O=C(COc1ccc(S(=O)(=O)N2CCOCC2)cc1)NCCc1ccccc1,"inconclusive: 3.16 µM [inhibitor, single point]",–
COc1ccc(N2CC(O)(c3ccc(OC(F)F)cc3)[N+]3=C2CCCC3)cc1 (stereo not given),–,inactive: -3.03%

# Filtered by structure: the entries above with a thiophene ring, fused or not (three)
Structure (SMILES),Potency,"activity, negative = active"
Cc1ccc2cc(C(c3nnnn3C3CCCC3)N(Cc3ccco3)Cc3cccs3)c(=O)[nH]c2c1 (stereo not given),–,inactive: 2.48%
CN(C)c1ccc(CNC(=O)c2sc3ncccc3c2-n2cccc2)cc1,–,inactive: 0.506%
O=C(NCc1cccnc1)c1cccs1,"inconclusive: 14.1 µM [inhibitor, single point]",–

# Going on with the list.

Structure (SMILES),Potency,"activity, negative = active"
CCOc1ccc(C2CC(c3c(O)c4ccccc4oc3=O)=NN2c2ccccc2)cc1OC (stereo not given),"inconclusive: 3.98 µM [inhibitor, full curve, poor fit]",–
O=C(O)Cc1sc(NC2CCCCC2)nc1-c1ccc(Cl)cc1,active: 25.1 µM,–
COc1ccc(C(=O)CC(Nc2ccc([N+](=O)[O-])cc2)c2ccc(Cl)cc2)cc1 (stereo not given),–,inactive: -5.52%
Cc1cc(C)cc(OCCNS(=O)(=O)c2cccs2)c1,"inconclusive: 4.47 µM [inhibitor, single point]",–
Cc1ccc(OCC(=O)Nc2ccc(S(=O)(=O)N(Cc3ccccc3)c3ccccc3)cc2)cc1,"inconclusive: 10 µM [inhibitor, partial curve, poor fit]",–
COCCCNc1nc2ccccc2nc1NS(=O)(=O)c1cccs1,"inconclusive: 35.5 µM [inhibitor, single point]",–
Cc1ccc2c(c1)C(=O)C(=O)N2CC(=O)Nc1ccccc1NC(=O)c1ccccn1,"inconclusive: 1.26 µM [inhibitor, partial curve, poor fit]",–
O=C(CC1(O)C(=O)N(Cc2ccccc2)c2ccc(Br)cc21)c1ccccc1 (stereo not given),"inconclusive: 22.4 µM [inhibitor, single point]",–
CC1CN(C(=S)NC(=O)c2ccccc2)CC(C)O1 (stereo not given),"inconclusive: 11.2 µM [inhibitor, single point]",–
CCOc1ccccc1N1C(=O)CC(Sc2nccc(C)n2)C1=O (stereo not given),"inconclusive: 35.5 µM [inhibitor, single point]",–
O=C(OCc1ccccc1)c1ccc(Br)o1,–,inactive: 10.5%
CCOC(=O)CC1=C(C(=O)OCC)C(c2ccc(OC)c(OC)c2)C(C#N)=C(N)O1 (stereo not given),–,inactive: 1.29%
c1ccc(C(c2ccccn2)c2ccccn2)cc1,–,inactive: 0.89%
O=C(NNC(=O)c1ccc(Oc2cc(Cl)cc(Cl)c2)o1)c1ccccc1,"inconclusive: 12.6 µM [inhibitor, partial curve, poor fit]",–
Cc1ccc(N=C2S/C(=C\c3cn(CC(=O)O)c4ccccc34)C(=O)N2C)cc1,"inconclusive: 35.5 µM [inhibitor, single point]",–
COCCNC(=S)N/N=C(\C)c1ccc(Cl)c(Cl)c1,"inconclusive: 25.1 µM [inhibitor, single point]",–
COc1cc2c(cc1OC)C(C(=O)NCc1ccco1)C(c1cccs1)N(C)C2=O (stereo not given),"inconclusive: 35.5 µM [inhibitor, single point]",–
COc1ccc2c(Cl)c(C(=O)N/N=C/c3ccncc3)sc2c1,"inconclusive: 14.1 µM [inhibitor, single point]",–
CCOC(=O)c1c(C)oc2c1c(C(c1cccnc1)N1CCCCC1)c(O)c1ccccc12 (stereo not given),–,inactive: 2.11%
O=C1CCNc2ccc(-c3ccccc3)cc21,"inconclusive: 35.5 µM [inhibitor, single point]",–
Cc1ccccc1NC(=S)NC(=O)/C=C/c1ccco1,"inconclusive: 35.5 µM [inhibitor, partial curve, poor fit]",–
Cc1cc(C)cc(OCCNC(=O)c2cc(S(=O)(=O)N3CCOCC3)ccc2F)c1,"inconclusive: 15.8 µM [inhibitor, single point]",–
